{"sequences": {"note": "The chains behind the UniProt entries cited, without tags or fusion partners.", "UniProt P0ACJ8": "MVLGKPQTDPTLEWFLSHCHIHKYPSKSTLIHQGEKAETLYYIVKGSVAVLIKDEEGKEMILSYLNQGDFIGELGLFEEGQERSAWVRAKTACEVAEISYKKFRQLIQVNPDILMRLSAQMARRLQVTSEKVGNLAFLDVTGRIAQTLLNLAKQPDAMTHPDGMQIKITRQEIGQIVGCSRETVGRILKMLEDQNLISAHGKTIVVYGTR"}, "source": "paper doi:10.1101/284836", "target": "T1, EcSxyHIS (histidine-tagged E. coli Sxy) (E. coli) (UniProt P75869)", "T1 sequence": "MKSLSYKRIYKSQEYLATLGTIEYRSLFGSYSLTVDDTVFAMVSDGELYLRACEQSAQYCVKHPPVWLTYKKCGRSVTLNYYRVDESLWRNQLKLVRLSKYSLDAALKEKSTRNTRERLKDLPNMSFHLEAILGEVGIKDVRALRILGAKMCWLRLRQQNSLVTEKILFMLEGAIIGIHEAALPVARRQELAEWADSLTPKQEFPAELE", "assay": "Ni-NTA co-purification, CRP detected by bandshift", "note": "These are yes or no findings as the source states them, for the method shown. Sequences can lack the tags named with a protein.", "data": [{"substance": "native CRP (cAMP receptor protein) of E. coli (from UniProt P0ACJ8 1-210)", "values": [{"measurement": "binding", "result": "no binding"}]}]}
